Experimental data: US10765128B2, “Composition for prevention or treatment of metabolic syndrome or for antioxidation containing black bean leaf extracts and flavonol glysosides isolated therefrom as active ingredients” (KOREA RESEARCH INSTITUTE OF BIOSCIENCE AND BIOTECHNOLOGY, priority 2015, dated 2020)
For some of these results: At least one read-out could not be matched to a standard name with certainty. Some entries share one result that the patent states for a list of compounds.

Legend:
[1] = DPPH radical scavenging activity; conditions: discussion of the DPPH results, 50 μM
Description: Two mL of a DPP solution was mixed in 1 mL of a test substance solution, after which a resulting mixture was stirred well. An optical density was measured at 517 nm at an interval of 1 minute for 20 minutes by using an UV/Vis spectrophotometer to evaluate the degree of DPPH radical scavenging activity.

[2] = system: MIN6 β-cells; experiment: insulin secretion in 30 mM glucose-induced MIN6 β-cells (ELISA insulin kit); format: cell-based, mouse; conditions: sample concentration 100 μM
Description: MIN6 β-cells, which is a mouse pancreatic. β-cell strain, was cultured in DMEM (Lonza Co.) containing 15% FBS (Gibco Co.), 100 units/ml penicillin, and 100 μg/ml streptomycin at 37° C. in a humid 5% CO2 incubator.
MIN6 cells were seeded into a 24-well plate (1×10^5 cells/well) and cultured at 37° C. in a humid 5% CO2 Incubator. In 48 hours later, the medium was first replaced with a DMEM without glucose contained therein, after which a resulting medium was left alone for 60 minutes, such that the black soybean (seoritae) leaf extract and the flavonol glycoside compounds, samples of the present invention, were treated at a certain concentration, into the DMEM with 30 mM glucose contained therein, thus being reacted for 30 minutes. A control group was one without a sample added therein under the same condition as described above, and the insulin secreted into the medium was measured by using an ELISA insulin kit (Alpco diagnostics). […]

Compound	LDL oxidation inhibitory activity (as worded, discussion of Table 10) [1]	Increase (%) in Insulin Secretion Amount in 30 mM Glucose-induced MIN6 Pancreatic β-Cells [2]
O=c1c(O[C@@H]2OC(CC[C@@H]3OC(O)[C@H](O)C(O)C3O)[C@H](O)C(O)C2O[C@@H]2OC(O)[C@H](O)C(O)C2O)c(-c2ccc(O)cc2)oc2cc(O)cc(O)c12 (stereo partly shown) [Comparative Example 3, reference compound]	less than 89%	–
O=c1c(O)c(-c2ccc(O)cc2)oc2cc(O)cc(O)c12 [Kaempferol, reference compound]	–	18.9 ± 0.5%
O=c1c(-c2ccc(O)cc2)coc2cc(O[C@@H]3O[C@H](CO)[C@@H](O)[C@H](O)[C@H]3O)cc(O)c12 [Comparative Example 4, Genistin, reference compound]	less than 89%	–
O=c1c(O[C@@H]2OC(CC[C@@H]3OC(O)[C@H](O)C(O)C3O)[C@H](O)C(O)C2O[C@@H]2OC(CO)[C@@H](O)C(O)C2O)c(-c2ccc(O)cc2)oc2cc(O)cc(O)c12 (stereo partly shown) [Comparative Example 2, reference compound]	less than 89%	–
